No constants are given. Whether binding was seen depends on the method and setting. For part of these data: Binding seen in cells or lysates may run through a third protein. Some binding calls cover weakened binding; strength is not graded here.
Key:
[1] = target: CDKA1;1, yeast two-hybrid construct (rice (Oryza sativa)) (UniProt P29618); assay: two-hybrid
[2] = target: CDKA2;1, yeast two-hybrid construct (rice (Oryza sativa)) (UniProt P29619); assay: two-hybrid
[3] = target: CDKB1;1, yeast construct (rice (Oryza sativa)) (UniProt Q8L4P8); assay: two-hybrid
[4] = target: T1, CDKB2;1, yeast construct (rice (Oryza sativa)) (UniProt Q0J4I1); assay: two-hybrid
T1 sequence: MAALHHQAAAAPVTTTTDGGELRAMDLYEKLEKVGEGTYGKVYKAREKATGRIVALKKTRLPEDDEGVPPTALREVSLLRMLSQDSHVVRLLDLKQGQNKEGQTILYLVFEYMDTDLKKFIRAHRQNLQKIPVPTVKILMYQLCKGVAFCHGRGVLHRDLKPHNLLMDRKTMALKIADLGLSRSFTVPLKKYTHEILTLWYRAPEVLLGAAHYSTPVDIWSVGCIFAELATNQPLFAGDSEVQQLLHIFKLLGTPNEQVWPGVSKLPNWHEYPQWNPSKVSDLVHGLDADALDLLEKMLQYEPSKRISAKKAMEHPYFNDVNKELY

Amino acid sequences for entries named in this document (tags omitted).
UniProt P29618: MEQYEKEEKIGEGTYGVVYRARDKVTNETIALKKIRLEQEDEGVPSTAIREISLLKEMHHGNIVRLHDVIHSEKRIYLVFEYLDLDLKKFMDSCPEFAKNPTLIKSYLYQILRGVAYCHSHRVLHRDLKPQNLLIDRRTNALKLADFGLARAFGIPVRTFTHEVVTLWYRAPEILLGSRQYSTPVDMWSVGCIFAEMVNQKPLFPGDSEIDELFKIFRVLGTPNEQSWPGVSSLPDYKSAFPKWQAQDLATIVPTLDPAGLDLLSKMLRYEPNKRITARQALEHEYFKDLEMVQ
UniProt P29619: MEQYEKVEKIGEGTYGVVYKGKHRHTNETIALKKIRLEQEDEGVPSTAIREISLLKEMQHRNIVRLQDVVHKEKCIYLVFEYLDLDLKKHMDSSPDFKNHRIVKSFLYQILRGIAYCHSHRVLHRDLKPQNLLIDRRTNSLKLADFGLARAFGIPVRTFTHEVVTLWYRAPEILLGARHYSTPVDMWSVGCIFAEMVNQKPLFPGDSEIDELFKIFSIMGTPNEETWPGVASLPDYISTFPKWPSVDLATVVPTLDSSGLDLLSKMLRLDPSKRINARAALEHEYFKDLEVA
UniProt Q8L4P8: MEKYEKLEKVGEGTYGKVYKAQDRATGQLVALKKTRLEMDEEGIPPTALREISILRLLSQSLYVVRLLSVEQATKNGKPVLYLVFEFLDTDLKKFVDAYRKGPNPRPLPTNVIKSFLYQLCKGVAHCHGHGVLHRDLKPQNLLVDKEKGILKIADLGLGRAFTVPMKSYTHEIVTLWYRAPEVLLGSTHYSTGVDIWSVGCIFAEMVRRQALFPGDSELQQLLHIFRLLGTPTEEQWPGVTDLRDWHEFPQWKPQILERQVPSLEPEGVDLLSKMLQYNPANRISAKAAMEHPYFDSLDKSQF
UniProt Q336M2: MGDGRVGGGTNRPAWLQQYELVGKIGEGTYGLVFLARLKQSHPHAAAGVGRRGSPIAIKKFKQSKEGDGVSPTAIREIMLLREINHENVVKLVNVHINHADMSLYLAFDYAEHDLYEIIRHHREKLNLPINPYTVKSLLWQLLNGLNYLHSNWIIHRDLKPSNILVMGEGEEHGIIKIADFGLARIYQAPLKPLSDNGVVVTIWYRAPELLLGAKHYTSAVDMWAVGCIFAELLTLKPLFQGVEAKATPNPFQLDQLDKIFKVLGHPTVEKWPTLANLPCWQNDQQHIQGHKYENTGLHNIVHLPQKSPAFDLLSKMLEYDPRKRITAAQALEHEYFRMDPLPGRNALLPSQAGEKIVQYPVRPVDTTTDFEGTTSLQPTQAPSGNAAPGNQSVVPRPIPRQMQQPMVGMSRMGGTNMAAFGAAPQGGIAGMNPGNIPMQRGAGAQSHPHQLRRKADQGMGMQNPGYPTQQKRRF
UniProt Q6Z6G5: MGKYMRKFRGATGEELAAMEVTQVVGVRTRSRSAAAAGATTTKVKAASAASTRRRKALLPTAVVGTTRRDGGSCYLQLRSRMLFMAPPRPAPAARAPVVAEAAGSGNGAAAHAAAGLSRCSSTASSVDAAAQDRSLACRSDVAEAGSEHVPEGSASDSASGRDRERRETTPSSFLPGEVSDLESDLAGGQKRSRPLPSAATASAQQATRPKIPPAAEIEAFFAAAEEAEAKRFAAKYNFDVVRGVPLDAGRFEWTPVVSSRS

[5] = target: CDKE1, yeast two-hybrid construct (rice (Oryza sativa)) (UniProt Q336M2); assay: two-hybrid
[6] = target: T2, KRP5 (Kip-Related Protein 5), yeast construct (rice (Oryza sativa)) (UniProt Q283L0); assay: co-IP
T2 sequence: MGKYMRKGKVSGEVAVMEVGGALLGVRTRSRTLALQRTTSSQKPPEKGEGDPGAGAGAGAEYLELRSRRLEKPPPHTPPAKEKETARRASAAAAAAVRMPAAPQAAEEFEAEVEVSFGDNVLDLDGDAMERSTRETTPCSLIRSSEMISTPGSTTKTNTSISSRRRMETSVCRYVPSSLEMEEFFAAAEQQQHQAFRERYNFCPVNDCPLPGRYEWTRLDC

[7] = target: T2, KRP5 (Kip-Related Protein 5), yeast construct (rice (Oryza sativa)); assay: two-hybrid
[8] = target: T3, KRP5-nEYFP (rice (Oryza sativa)) (UniProt Q283L0); assay: split reporter
T3 sequence: T2 sequence

[9] = target: KRP1, yeast two-hybrid bait (rice (Oryza sativa)) (UniProt Q6Z6G5); assay: two-hybrid
[10] = target: T4, KRP4 (Kip-Related Protein 4), yeast construct (rice (Oryza sativa)) (UniProt Q7XDH8); assay: two-hybrid
T4 sequence: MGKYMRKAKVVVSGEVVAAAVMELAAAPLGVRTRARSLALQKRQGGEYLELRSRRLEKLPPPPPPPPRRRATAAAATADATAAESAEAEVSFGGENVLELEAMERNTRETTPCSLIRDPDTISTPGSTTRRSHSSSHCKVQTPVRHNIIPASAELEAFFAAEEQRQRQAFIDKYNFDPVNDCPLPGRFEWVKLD

[11] = target: CDKB1;1, yeast construct (rice (Oryza sativa)), Q8L4P8; assay: two-hybrid; conditions: remark: other sources report otherwise
[12] = target: T4, KRP4 (Kip-Related Protein 4), yeast construct (rice (Oryza sativa)); assay: co-IP
[13] = target: KRP4m, C-terminally truncated KRP4 (rice (Oryza sativa)) (UniProt Q7XDH8); assay: two-hybrid
[14] = target: KRP5m, C-terminally truncated KRP5 (rice (Oryza sativa)) (UniProt Q283L0); assay: two-hybrid

B1: KRP5 (Kip-Related Protein 5), yeast construct (protein, UniProt Q283L0 1-221)
chain: T2 sequence
- binding [1]: binds
- binding [2]: binds
- binding [3]: binds
- binding [4]: binds
- binding [5]: binds

B2: KRP4 (Kip-Related Protein 4), yeast construct (protein, UniProt Q7XDH8 1-194)
chain: T4 sequence
- binding [6]: binds
- binding [1]: binds
- binding [2]: binds
- binding [3]: binds
- binding [4]: binds
- binding [5]: no binding
- binding [7]: binds

B3: KRP4-cEYFP (protein, UniProt Q7XDH8 1-194)
chain: T4 sequence
- binding [8]: binds

B4: CYCD6;1, yeast two-hybrid prey (protein, UniProt Q69S43 1-320)
chain: MDMATGAKEVVVVEAYEYEFDLENPFTSPADEPIASLLDAEGHHSPSVSAAASAARREAAGFISKVRYDGELDVHPRVAYLALNYVDRYLSKRQLACERNPWAPRLLAISCLTLAAKMQRAAAISAADIQRGEEFMFDEAKIQRMEQMVLNALEWRTRSVTPLAFLGFFLSACFPQPRHPALLDAIKARAVDLLLRVQPEVKMAEFSPSVAAAAALLAAAGEVAGAHLLGFEAGVAACPFVNSEKLRECGEVMAAACGVGPSWAAAATSAETPVTVLGHHRSASSESERTTTVGSAANSADAKRRCMGPPRQWGVGGPDE
- binding [1]: no binding
- binding [2]: binds
- binding [3]: no binding
- binding [4]: binds
- binding [5]: no binding

B5: CYCD5;1 (rice Cyclin D5;1), yeast two-hybrid prey (protein, UniProt Q0DQA9 1-367)
chain: MEAEDEYSAGCSFSLMCQEDSTDLDDDGGGGGCFAGDGRADLLLVYNAAAAADDEDEEEVEEYMDHLVSKESSFCSSSSSTSSSSCCFSDAGGESAAAAAPMDWFALARRATVKWILETRGCFGFCHRTAYLAIAYFDRFCLRRCIDRSVMPWAARLLAVACVSLAAKMEEYRAPALSEFRAGVGDDGYEFSCVCIRRMELLVLSTLDWRMAAVTPFDYLPCLSSRLRRHVGGGGGAGASAALIFSAAEAASVLDHRPSTVAAAAVLAATHGALTREALESKMSGLSPSFLLDKEDVFACYSAMLSQPTSPASKSTTTTTGKRSSSSSCSESTDAASSYDATAASFPAAASCGSKRMRLELPGGILR
- binding [1]: no binding
- binding [2]: binds
- binding [3]: binds
- binding [4]: binds
- binding [5]: no binding
- binding [9]: no binding
- binding [10]: no binding
- binding [7]: binds

B6: CYCA2;1, yeast two-hybrid prey (protein, UniProt Q2QQ96 1-490)
chain: MAGRKENPVLTACQAPSGRITRAQAAANRGRFGFAPSVSLPARTERKQTAKGKTKRGALDEITSASTATSAPQPKRRTVLKDVTNIGCANSSKNCTTTSKLQQKSKPTQRVKQIPSKKQCAKKVPKLPPPAVAGTSFVIDSKSSEETQKVELLAKAEEPTNLFENEGLLSLQNIERNRDSNCHEAFFEARNAMDKHELADSKPGDSSGLGFIDIDNDNGNPQMCASYASEIYTNLMASELIRRPRSNYMEALQRDITKGMRGILIDWLVEVSEEYKLVPDTLYLTINLIDRFLSQHYIERQKLQLLGITSMLIASKYEEICAPRVEEFCFITDNTYTKAEVLKMEGLVLNDMGFHLSVPTTKTFLRRFLRAAQASRNVPSITLGYLANYLAELTLIDYSFLKFLPSVVAASAVFLARWTLDQSDIPWNHTLEHYTSYKSSDIQICVCALRELQHNTSNCPLNAIREKYRQQKFECVANLTSPELGQSLFS
- binding [1]: no binding
- binding [4]: binds
- binding [5]: no binding

B7: CYCA2;1, yeast two-hybrid prey, Q2QQ96 1-490 (protein)
chain: B6 chain
- binding [11]: no binding

B8: CDKB2;1, yeast construct (enzyme, UniProt Q0J4I1 1-326)
chain: T1 sequence
- binding [12]: binds
- binding [6]: binds
- binding [10]: binds
- binding [13]: no binding
- binding [7]: binds
- binding [14]: no binding
